Assay [1] has as its target BCMA-Fc (soluble human BCMA fused at its C-terminus to an Fc region of IgG) (human) (UniProt Q02223). Description: flow cytometry of transduced primary T cells (CD4 and CD8 gates, Non-SSE and O/SSE constructs) stained with recombinant BCMA-Fc (rBCMA) and for the surrogate marker.
Assay [2] has the same target. The assay is described as follows: flow cytometry of transduced T cells stained with recombinant BCMA-Fc. (In general: A flow cytometer gives signals particle by particle.)

Sequences of proteins named here, by UniProt entry; tags and fusion partners are left off. A change or cut given only in a name is not applied to a line headed by its entry.
UniProt Q02223: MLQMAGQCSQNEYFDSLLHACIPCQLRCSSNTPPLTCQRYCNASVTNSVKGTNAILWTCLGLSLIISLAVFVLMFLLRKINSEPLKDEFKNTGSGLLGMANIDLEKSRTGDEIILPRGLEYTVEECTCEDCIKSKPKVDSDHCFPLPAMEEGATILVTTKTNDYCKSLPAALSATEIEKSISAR

These are yes or no findings as the source states them, for the method shown. Some results given as binding are weak or reduced against the parent protein; the word gives no strength.

B1: BCMA-25-LS CAR (other)
chain: EVQLVQSGGGLVQPGRSLRLSCTASGFTFGDYAMSWFRQAPGKGLEWVGFIRSKAYGGTTEYAASVKGRFTISRDDSKSIAYLQMNSLKTEDTAVYYCAAWSAPTDYWGQGTLVTVSSGGGGSGGGGSGGGGSDIQMTQSPAFLSASVGDRVTVTCRASQGISNYLAWYQQKPGNAPRLLIYSASTLQSGVPSRFRGTGYGTEFSLTIDSLQPEDFATYYCQQSYTSRQTFGPGTRLDIKESKYGPPCPPCPAPPVAGPSVFLFPPKPKDTLMISRTPEVTCVVVDVSQEDPEVQFNWYVDGVEVHNAKTKPREEQFQSTYRVVSVLTVLHQDWLNGKEYKCKVSNKGLPSSIEKTISKAKGQPREPQVYTLPPSQEEMTKNQVSLTCLVKGFYPSDIAVEWESNGQPENNYKTTPPVLDSDGSFFLYSRLTVDKSRWQEGNVFSCSVMHEALHNHYTQKSLSLSLGKMFWVLVVVGGVLACYSLLVTVAFIIFWVKRGRKKLLYIFKQPFMRPVQTTQEEDGCSCRFPEEEEGGCELRVKFSRSADAPAYQQGQNQLYNELNLGRREEYDVLDKRRGRDPEMGGKPRRKNPQEGLYNELQKDKMAEAYSEIGMKGERRRGKGHDGLYQGLSTATKDTYDALHMQALPPR
notes: Chimeric antigen receptor; signal peptide left out; also called BCMA-25-LS-O/SSE CAR; BCMA-25-L CAR
B1: in assay [1], the binding entry was “binds”.

B2: BCMA-55-LS CAR (other)
chain: QSALTQPASVSASPGQSIAISCTGTSSDVGWYQQHPGKAPKLMIYEDSKRPSGVSNRFSGSKSGNTASLTISGLQAEDEADYYCSSNTRSSTLVFGGGTKLTVLGSRGGGGSGGGGSGGGGSLEMAEVQLVQSGAEMKKPGASLKLSCKASGYTFIDYYVYWMRQAPGQGLESMGWINPNSGGTNYAQKFQGRVTMTRDTSISTAYMELSRLRSDDTAMYYCARSQRDGYMDYWGQGTLVTVSSESKYGPPCPPCPAPPVAGPSVFLFPPKPKDTLMISRTPEVTCVVVDVSQEDPEVQFNWYVDGVEVHNAKTKPREEQFQSTYRVVSVLTVLHQDWLNGKEYKCKVSNKGLPSSIEKTISKAKGQPREPQVYTLPPSQEEMTKNQVSLTCLVKGFYPSDIAVEWESNGQPENNYKTTPPVLDSDGSFFLYSRLTVDKSRWQEGNVFSCSVMHEALHNHYTQKSLSLSLGKMFWVLVVVGGVLACYSLLVTVAFIIFWVKRGRKKLLYIFKQPFMRPVQTTQEEDGCSCRFPEEEEGGCELRVKFSRSADAPAYQQGQNQLYNELNLGRREEYDVLDKRRGRDPEMGGKPRRKNPQEGLYNELQKDKMAEAYSEIGMKGERRRGKGHDGLYQGLSTATKDTYDALHMQALPPR
notes: Chimeric antigen receptor on T cells or Jurkat cells; also called BCMA-55-LS-O/SSE CAR; BCMA-55-LS CAR O/SSE
Consider B2, for which the binding result in assay [1] and in assay [2] was “binds” each time.

These data come from patent publication US20260109774A1 (JUNO THERAPEUTICS, published 2026).
